In experiment [1] the target is TLR3-His (24-702aa) (UniProt O15455). Kind of experiment: pull-down; PRMT5-Flag binding to purified His control and TLR3-His (24-702aa); immunoblot with Flag-tag and His-tag antibodies; whether PRMT5-Flag was purified is not told. (In general: A western blot detects proteins with antibodies after separation by electrophoresis.)
Experiment [2] deals with Flag-TLR3 (Toll-like receptor 3) (UniProt O15455). Kind of experiment: co-IP; Co-IP of TLR3 and importin α5 (Supplementary Fig. 3h); cells and conditions not given.
Experiment [3] shares this target. Put plainly: co-IP; immunoprecipitation and immunoblot of TLR3 and PRMT5; cytosol and nucleus of TLR3-overexpressing Panc1 cells, and WT and TLR3-overexpressing Panc1 cells, treated with GEM (50 μM) for 24 h; also A549 cells.

Amino acid sequences for entries named in this document (tags omitted). A change or cut given only in a name is not applied to a line headed by its entry. Residues count along the entry.
UniProt O15455: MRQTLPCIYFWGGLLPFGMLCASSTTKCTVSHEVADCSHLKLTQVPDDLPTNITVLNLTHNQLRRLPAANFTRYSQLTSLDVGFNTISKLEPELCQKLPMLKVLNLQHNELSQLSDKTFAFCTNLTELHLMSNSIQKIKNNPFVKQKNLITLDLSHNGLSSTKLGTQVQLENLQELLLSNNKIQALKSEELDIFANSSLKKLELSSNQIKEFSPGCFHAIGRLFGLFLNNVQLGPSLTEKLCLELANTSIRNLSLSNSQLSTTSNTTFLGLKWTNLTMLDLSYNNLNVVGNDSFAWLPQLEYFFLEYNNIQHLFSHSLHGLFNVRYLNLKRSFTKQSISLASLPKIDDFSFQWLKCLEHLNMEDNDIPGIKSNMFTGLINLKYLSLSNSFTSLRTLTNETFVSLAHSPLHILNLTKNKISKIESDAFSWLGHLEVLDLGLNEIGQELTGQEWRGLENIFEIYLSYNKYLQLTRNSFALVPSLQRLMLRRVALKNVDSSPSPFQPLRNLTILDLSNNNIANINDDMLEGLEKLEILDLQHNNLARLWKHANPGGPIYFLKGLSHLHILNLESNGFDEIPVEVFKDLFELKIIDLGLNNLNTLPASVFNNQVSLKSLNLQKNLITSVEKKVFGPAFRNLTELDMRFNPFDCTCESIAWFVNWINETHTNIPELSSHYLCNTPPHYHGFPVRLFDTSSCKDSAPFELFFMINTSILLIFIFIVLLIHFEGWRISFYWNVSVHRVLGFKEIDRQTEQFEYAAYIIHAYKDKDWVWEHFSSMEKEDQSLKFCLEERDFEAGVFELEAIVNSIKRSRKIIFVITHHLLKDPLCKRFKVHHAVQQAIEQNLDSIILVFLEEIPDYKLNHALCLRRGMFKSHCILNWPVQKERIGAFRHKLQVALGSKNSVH
Flag-TLR3 (Toll-like receptor 3): residues 24-904 of O15455
TLR3-His (24-702aa): residues 24-702 of O15455
UniProt O14744: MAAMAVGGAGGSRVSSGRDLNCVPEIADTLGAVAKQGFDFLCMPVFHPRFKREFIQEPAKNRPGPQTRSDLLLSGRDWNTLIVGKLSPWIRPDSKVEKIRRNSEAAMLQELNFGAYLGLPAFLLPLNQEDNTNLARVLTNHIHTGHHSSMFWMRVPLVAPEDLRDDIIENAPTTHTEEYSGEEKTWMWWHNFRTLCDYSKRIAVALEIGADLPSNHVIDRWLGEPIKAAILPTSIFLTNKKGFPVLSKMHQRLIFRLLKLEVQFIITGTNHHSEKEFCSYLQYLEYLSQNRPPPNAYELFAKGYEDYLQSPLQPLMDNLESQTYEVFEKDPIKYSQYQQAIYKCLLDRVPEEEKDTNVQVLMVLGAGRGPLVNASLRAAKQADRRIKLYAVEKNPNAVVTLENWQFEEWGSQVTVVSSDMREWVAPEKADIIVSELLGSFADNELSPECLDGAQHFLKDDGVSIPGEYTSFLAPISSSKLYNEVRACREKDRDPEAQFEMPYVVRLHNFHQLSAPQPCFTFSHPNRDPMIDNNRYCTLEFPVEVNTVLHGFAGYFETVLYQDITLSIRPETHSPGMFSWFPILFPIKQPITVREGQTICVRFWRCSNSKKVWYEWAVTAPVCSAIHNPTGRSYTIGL
UniProt P52294: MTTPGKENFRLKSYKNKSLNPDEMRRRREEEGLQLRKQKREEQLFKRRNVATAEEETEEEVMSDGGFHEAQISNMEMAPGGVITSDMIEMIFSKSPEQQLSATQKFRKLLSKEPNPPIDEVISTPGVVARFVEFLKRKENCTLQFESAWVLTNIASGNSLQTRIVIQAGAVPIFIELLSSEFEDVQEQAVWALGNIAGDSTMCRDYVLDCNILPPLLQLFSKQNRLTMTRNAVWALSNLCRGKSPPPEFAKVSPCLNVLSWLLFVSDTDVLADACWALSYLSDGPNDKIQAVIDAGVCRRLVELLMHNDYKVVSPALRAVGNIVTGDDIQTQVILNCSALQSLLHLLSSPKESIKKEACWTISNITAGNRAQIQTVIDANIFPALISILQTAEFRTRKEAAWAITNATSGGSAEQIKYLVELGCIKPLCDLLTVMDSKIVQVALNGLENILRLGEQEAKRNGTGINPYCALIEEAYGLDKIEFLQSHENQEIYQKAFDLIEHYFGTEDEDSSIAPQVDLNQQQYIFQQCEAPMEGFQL

These are yes or no findings as the source states them, for the method shown. In cells and extracts the contact can be indirect. Some entries that bind do so weakly or less than the wild type.

For PRMT5-Flag (from UniProt O14744 1-637), the binding entry in experiment [1] is “binds”. importin α5 (from UniProt P52294 1-538): the binding entry in experiment [2] is “binds”.

Take “protein arginine methyltransferase 5 (PRMT5) (from UniProt O14744 1-637)”: the binding entry in experiment [3] was “binds”.

Values taken from paper PMC12271568.
